# Library screening results

From ChEMBL document CHEMBL3988442, “University of Dundee, Small-Polar-MMV Screening Library” (2021).

Mtb growth Cornell: 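Whole-cell assay for inhibitors of Mycobacterium tuberculosis growth, labelled Cornell in the record; the read-out is not stated. The concentration is filed as 10 mM, unlikely as a test dose, so the dose is not known. Higher means stronger inhibition (inferred from two other growth screens of the library). Of about 53,000 compounds tested this way, about 900 (1.7%) reached 50% or more in at least one test.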
Mtb heat-shock: 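Assay on Mycobacterium tuberculosis, filed only as a heat shock assay from Cornell; the read-out is not stated. The concentration is filed as 10 mM, unlikely as a test dose, so the dose is not known. The record gives no direction; compounds that gave an IC50 in retests scored well above the rest, so higher reads as stronger inhibition. About 69,000 compounds were tested under these conditions; 1.4% (about 930) showed 50% or more at least once.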

Values are the deposited “Percent Effect”, in %. The controls that fix the scale are not given in the record; negative values are as filed. The compounds are a random part of those screened. A dash means the value is not listed here; it may have been measured.

Result for CC(C)(O)CCc1ccc(C(=O)NCCC2CCCOC2)cc1 (configuration not stated) was Mtb growth Cornell: 9.785%; Mtb heat-shock: -12.27%. With O=C(O)C(F)(F)F.[H][C@]12C[C@H](C(=O)NC)N(C)[C@@]1([H])CN(S(=O)(=O)c1ccccc1)C2 the screen gave Mtb growth Cornell: -35.13%; Mtb heat-shock: -16.25%. With Cc1cc(F)ccc1OC1(C(=O)O)CCN(Cc2cccnc2)CC1 the screen gave Mtb growth Cornell: 9.406%; Mtb heat-shock: -3.871%. With CCCN1CCCn2nc(CNC(=O)CN(C)C3CCCC3)cc2C1 the screen gave Mtb growth Cornell: -12.04%; Mtb heat-shock: -22.56%. Cc1ccccc1CC1(C(=O)O)CCCN(c2ncccn2)C1 (configuration not stated) gave Mtb growth Cornell: 24.82%; Mtb heat-shock: -4.005%. With CN1CCN(C2CCN(Cc3nnc(C(C)(C)C)o3)CC2)C1=O the screen gave Mtb heat-shock: 18.01%. For COc1ccccc1OC1(C(=O)O)CCN(c2ncnc(C)c2C)CC1 the result was Mtb growth Cornell: -2.251%; Mtb heat-shock: -30.8%.

COCC1CN(Cc2ccc(C)o2)Cc2cn(C)nc21.O=C(O)C(F)(F)F.O=C(O)C(F)(F)F (configuration not stated) gave Mtb growth Cornell: 35.46%; Mtb heat-shock: -3.419%. With CNC(=O)CC1CC2(CCNCC2)c2cc(F)ccc21 (configuration not stated) the screen gave Mtb growth Cornell: 8.364%; Mtb heat-shock: 18.21%. With Cn1cc(C2COC3(CCN(C(=O)c4ccn(C)n4)CC3)C2)cn1 (configuration not stated) the screen gave Mtb growth Cornell: -12.06%; Mtb heat-shock: -6.321%. For CCCC(=O)N1CCC(C(=O)NCCN2CCC(C)CC2)CC1 the result was Mtb growth Cornell: -20.71%; Mtb heat-shock: -0.6728%. Result for O=C(c1ccccc1)N(CC1CC1)c1cccnc1 was Mtb growth Cornell: 11.52%; Mtb heat-shock: 2.076%. For CCN(Cc1noc(C)n1)C(=O)CCc1scnc1C the result was Mtb growth Cornell: -39.98%; Mtb heat-shock: -0.2115%. For O=c1[nH]c2c(-c3ccccn3)nsc2c(=O)n1C1CCCCC1 the result was Mtb growth Cornell: -22.98%; Mtb heat-shock: 3.699%.

With [H][C@]12CCN(C(N)=O)[C@@]1([H])CC[C@H](COCc1csc(C)n1)O2 the screen gave Mtb growth Cornell: 20.3%; Mtb heat-shock: 14.74%. With O=C(O)C(F)(F)F.[H][C@]12CN(Cc3cccc(C)c3)C(=O)[C@@]1([H])CN(C1CCOCC1)C2 the screen gave Mtb growth Cornell: 22.64%; Mtb heat-shock: -13.31%. CSc1ccc(NCc2csc(CS(C)(=O)=O)n2)cc1F read Mtb growth Cornell: 6.454%; Mtb heat-shock: 9.034%. Cc1cc(C)n(CC2CCCN2CCCS(C)(=O)=O)n1 (configuration not stated) read Mtb heat-shock: 7.273%. For CS(=O)(=O)N[C@H]1CN(C(=O)CCc2ccc(=O)[nH]n2)C[C@@H]1C1CC1 the result was Mtb growth Cornell: 0.7499%; Mtb heat-shock: 8.401%. For CSCc1cc(F)ccc1CNC(=O)N1CCCC1 the result was Mtb growth Cornell: -4.061%; Mtb heat-shock: -17.92%. Result for O=C(C1CC1)N1C[C@@H](F)[C@@H](OCc2nc3cc(F)ccc3[nH]2)C1 was Mtb growth Cornell: 2.47%; Mtb heat-shock: -22.16%.

COCC(C)N(Cc1ccccc1OC)C(=O)c1cc(C)[nH]c(=O)c1 (configuration not stated) gave Mtb growth Cornell: 14.03%; Mtb heat-shock: 12.52%. For CN(Cc1ccco1)C(=O)CN1CCCC1c1cccs1 (configuration not stated) the result was Mtb growth Cornell: -12.59%; Mtb heat-shock: -6.628%. O=C(O)c1cnc(N2CCCC2)nc1COc1ccc(F)cc1 gave Mtb growth Cornell: 38.38%; Mtb heat-shock: 14.44%. Result for Cc1nn(C)c(N2CCOCC2)c1CNC(c1cccs1)C(C)C (configuration not stated) was Mtb growth Cornell: 18.28%; Mtb heat-shock: -22.43%. COc1ncc(C2(O)CCN(Cc3cc(F)ccc3F)CC2)c(OC)n1.Cl read Mtb heat-shock: -11.09%. Result for CS(=O)(=O)N1CCC(Oc2ccc(C(=O)NCCC(N)=O)cc2Cl)CC1 was Mtb growth Cornell: -13.8%; Mtb heat-shock: -25.31%. For COC1(CNC(=O)c2ccsc2)CCSC1 (configuration not stated) the result was Mtb growth Cornell: -0.9245%; Mtb heat-shock: 34.18%.

For Cc1cnn(C2CCCN(C(=O)CCCn3ccnc3C)C2)c1 (configuration not stated) the result was Mtb growth Cornell: -14.87%; Mtb heat-shock: -18.76%. Result for O=C(C1CC1)N1CCC[C@]2(C[C@@H](OCc3ccncc3)CO2)C1.O=C(O)C(F)(F)F was Mtb growth Cornell: 1.514%; Mtb heat-shock: -34.02%. With COC(=O)[C@@H]1CN(C(=O)c2cscn2)C[C@H]1c1ccc(OC)cc1 the screen gave Mtb growth Cornell: 11.42%; Mtb heat-shock: 13.78%. With CC(C)c1ccc(NC(=O)c2ncc(C(N)=O)cc2Cl)cc1 the screen gave Mtb growth Cornell: 8.063%; Mtb heat-shock: -18.18%. CC1CCc2nc(NS(=O)(=O)c3cnn(C)c3)sc2C1 (configuration not stated) read Mtb growth Cornell: 1.489%; Mtb heat-shock: 6.121%. CCc1nccn1C1CCCN(C(=O)CCCc2ccccn2)C1 (configuration not stated) read Mtb heat-shock: -12.8%. Result for Cc1nnc(N(CCC#N)CCC#N)s1 was Mtb growth Cornell: 53.32%; Mtb heat-shock: -11.23%.

With O=C(c1sccc1C1CC1)N1CCN(Cc2cscn2)CC1 the screen gave Mtb heat-shock: -21.46%. Result for CC(C)n1cc(CN2CCCN(C(=O)C3CCCN3C)CC2)cn1 (configuration not stated) was Mtb growth Cornell: 29.06%; Mtb heat-shock: -12.48%. Result for Cc1ccc(N2CCCN(C(=O)C3(C#N)CCCCC3)CC2)nn1 was Mtb heat-shock: 1.414%. COc1cc(CNC(=O)NCCCF)cc(Br)c1OC read Mtb growth Cornell: 26.15%; Mtb heat-shock: 20.68%. Result for COc1ccc(OC)c(C2CCN(C3CCOCC3)C2)c1 (configuration not stated) was Mtb growth Cornell: -54.14%; Mtb heat-shock: -1.494%. For Cc1ccc(CNC(=O)NC2CCN(CC(F)F)CC2)cc1 the result was Mtb heat-shock: -5.354%.

The last 5 entries again:

Compound,Mtb growth Cornell,Mtb heat-shock
CC(C)n1cc(CN2CCCN(C(=O)C3CCCN3C)CC2)cn1 (configuration not stated),29.06%,-12.48%
Cc1ccc(N2CCCN(C(=O)C3(C#N)CCCCC3)CC2)nn1,-,1.414%
COc1cc(CNC(=O)NCCCF)cc(Br)c1OC,26.15%,20.68%
COc1ccc(OC)c(C2CCN(C3CCOCC3)C2)c1 (configuration not stated),-54.14%,-1.494%
Cc1ccc(CNC(=O)NC2CCN(CC(F)F)CC2)cc1,-,-5.354%